# Experimental data from PMC7366740.
# The chains behind the UniProt entries cited, without tags or fusion partners. Residues count along the entry.
# UniProt Q99KH8: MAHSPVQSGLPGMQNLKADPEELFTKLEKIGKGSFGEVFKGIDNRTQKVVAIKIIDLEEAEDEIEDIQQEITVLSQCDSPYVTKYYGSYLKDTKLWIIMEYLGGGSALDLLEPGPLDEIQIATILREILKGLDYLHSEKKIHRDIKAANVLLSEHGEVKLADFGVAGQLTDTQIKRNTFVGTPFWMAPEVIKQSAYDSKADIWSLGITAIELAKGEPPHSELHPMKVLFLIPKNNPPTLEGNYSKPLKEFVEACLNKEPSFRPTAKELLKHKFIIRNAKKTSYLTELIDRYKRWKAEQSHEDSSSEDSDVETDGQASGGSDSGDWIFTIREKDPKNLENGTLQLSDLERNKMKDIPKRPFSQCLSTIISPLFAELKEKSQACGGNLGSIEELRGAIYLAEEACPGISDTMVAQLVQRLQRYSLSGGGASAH
# UniProt P23818, residues 19-907: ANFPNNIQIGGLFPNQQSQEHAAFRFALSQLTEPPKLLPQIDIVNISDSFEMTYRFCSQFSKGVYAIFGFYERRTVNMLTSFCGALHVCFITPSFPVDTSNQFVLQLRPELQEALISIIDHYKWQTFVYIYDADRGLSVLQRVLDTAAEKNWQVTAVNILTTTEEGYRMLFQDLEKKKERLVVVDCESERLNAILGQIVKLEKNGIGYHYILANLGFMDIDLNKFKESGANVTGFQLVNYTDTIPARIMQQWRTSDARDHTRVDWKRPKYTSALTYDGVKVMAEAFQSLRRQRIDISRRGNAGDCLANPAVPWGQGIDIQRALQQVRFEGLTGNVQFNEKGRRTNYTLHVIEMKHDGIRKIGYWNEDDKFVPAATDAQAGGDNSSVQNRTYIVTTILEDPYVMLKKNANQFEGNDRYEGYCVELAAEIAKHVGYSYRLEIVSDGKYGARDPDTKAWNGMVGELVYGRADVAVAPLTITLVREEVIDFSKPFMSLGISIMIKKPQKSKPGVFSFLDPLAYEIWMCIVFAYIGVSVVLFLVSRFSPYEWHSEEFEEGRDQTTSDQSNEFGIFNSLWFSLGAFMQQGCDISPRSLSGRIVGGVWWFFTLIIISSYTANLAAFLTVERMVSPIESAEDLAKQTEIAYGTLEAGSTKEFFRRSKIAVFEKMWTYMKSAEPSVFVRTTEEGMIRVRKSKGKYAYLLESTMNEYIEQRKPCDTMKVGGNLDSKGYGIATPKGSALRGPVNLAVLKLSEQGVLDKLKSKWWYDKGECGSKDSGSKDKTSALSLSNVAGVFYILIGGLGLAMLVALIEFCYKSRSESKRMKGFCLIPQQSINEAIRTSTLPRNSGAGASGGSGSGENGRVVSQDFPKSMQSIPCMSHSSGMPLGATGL
# UniProt P23819, residues 25-883: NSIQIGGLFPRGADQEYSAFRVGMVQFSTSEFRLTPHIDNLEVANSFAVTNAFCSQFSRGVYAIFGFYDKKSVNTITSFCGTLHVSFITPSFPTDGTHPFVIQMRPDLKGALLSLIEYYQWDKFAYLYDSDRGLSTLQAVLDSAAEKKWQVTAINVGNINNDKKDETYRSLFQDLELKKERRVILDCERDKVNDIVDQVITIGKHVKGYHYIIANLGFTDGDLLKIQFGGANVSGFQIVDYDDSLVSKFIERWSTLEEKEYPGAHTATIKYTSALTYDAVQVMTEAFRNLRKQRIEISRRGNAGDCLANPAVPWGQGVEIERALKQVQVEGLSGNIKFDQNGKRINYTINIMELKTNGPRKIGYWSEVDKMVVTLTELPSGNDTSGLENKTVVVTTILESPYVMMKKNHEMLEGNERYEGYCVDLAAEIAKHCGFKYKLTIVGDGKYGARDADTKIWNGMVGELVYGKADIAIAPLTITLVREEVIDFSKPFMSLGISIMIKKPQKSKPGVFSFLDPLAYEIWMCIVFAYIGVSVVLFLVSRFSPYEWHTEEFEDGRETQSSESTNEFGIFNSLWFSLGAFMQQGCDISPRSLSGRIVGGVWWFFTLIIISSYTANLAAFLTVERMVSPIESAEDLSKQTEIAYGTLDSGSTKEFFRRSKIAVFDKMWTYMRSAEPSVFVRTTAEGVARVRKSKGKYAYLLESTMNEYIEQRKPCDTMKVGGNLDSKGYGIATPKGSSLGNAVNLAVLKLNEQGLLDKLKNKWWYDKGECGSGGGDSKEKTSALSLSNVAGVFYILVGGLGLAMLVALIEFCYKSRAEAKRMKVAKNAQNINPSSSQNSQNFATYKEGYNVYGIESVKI
# UniProt P62812, residues 28-455: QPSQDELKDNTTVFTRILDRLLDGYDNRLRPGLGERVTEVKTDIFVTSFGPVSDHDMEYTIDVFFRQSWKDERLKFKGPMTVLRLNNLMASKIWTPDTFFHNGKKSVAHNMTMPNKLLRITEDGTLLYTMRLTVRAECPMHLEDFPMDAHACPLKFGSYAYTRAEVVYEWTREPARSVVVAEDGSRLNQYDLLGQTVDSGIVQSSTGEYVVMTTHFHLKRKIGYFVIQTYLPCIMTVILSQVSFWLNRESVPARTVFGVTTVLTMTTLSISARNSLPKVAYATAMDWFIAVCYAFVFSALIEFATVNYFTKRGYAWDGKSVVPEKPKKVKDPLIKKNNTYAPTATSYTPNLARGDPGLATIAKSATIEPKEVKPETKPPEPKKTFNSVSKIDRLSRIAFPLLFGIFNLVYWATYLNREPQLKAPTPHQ
# UniProt Q01097, residues 27-1482: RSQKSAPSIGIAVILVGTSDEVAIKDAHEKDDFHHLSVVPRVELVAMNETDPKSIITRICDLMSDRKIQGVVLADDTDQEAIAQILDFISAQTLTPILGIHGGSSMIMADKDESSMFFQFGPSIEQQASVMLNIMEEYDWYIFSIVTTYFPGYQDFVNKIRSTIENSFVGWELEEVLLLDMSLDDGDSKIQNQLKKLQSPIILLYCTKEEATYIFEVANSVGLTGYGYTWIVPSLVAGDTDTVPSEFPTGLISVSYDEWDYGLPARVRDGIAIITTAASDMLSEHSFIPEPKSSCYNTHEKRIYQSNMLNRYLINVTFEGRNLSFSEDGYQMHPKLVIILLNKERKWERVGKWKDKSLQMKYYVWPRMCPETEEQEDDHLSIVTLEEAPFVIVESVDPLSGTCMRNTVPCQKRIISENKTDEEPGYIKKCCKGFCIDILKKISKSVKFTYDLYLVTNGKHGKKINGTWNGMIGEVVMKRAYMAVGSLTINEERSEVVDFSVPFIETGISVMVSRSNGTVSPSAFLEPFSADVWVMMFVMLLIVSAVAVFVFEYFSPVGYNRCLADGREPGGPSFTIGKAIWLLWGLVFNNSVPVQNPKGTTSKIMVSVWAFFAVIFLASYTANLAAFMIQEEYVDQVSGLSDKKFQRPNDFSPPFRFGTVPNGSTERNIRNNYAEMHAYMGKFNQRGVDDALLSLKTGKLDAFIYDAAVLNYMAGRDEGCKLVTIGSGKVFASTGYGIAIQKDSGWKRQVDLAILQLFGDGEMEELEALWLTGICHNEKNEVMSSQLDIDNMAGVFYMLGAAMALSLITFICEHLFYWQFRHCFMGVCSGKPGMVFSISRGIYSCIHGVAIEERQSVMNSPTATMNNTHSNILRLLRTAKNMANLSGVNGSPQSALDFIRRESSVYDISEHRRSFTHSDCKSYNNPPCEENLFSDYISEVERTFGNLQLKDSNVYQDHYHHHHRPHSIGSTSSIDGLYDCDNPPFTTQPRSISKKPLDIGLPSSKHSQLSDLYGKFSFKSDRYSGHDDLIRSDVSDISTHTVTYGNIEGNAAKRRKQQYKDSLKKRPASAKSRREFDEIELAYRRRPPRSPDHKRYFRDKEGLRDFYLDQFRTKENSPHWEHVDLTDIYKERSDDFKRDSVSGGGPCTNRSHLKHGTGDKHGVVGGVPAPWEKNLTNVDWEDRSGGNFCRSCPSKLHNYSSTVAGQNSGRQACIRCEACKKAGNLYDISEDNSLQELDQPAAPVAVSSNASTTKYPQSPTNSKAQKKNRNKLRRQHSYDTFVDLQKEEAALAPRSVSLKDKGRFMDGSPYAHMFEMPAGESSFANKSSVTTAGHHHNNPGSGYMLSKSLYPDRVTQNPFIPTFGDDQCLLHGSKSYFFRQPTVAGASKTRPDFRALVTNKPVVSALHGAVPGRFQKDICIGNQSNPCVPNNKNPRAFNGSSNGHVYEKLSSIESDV
# No constants are given. Whether binding was seen depends on the method and setting. In cells and extracts the contact can be indirect. Some binding calls cover weakened binding; strength is not graded here.
# Legend:
# [1] = biological target: Serine/threonine kinase 24 (STK24) (mouse (endogenous in hippocampus of PTZ-kindled C57BL/6 mice)) (UniProt Q99KH8); test: co-IP; hippocampal lysates of PTZ-kindled mice; STK24 antibody on protein A/G magnetic beads; precipitate blotted for receptor subunits; rabbit IgG as negative control
# [2] = biological target: AMPA receptor subunit GluR1 (mouse (endogenous in hippocampus of PTZ-kindled C57BL/6 mice)) (UniProt P23818); test: co-IP; hippocampal lysates of PTZ-kindled mice; antibody against the receptor subunit on protein A/G magnetic beads; precipitate blotted with corresponding antibodies (STK24); rabbit IgG as negative control
# [3] = biological target: AMPA receptor subunit GluR2 (mouse (endogenous in hippocampus of PTZ-kindled C57BL/6 mice)) (UniProt P23819); test: as above
# [4] = biological target: GABAAR α1 (mouse (endogenous in hippocampus of PTZ-kindled C57BL/6 mice)) (UniProt P62812); test: as above
# [5] = biological target: T1, GABAAR γ2 (mouse (endogenous in hippocampus of PTZ-kindled C57BL/6 mice)) (UniProt P22723); test: as above
# T1 sequence: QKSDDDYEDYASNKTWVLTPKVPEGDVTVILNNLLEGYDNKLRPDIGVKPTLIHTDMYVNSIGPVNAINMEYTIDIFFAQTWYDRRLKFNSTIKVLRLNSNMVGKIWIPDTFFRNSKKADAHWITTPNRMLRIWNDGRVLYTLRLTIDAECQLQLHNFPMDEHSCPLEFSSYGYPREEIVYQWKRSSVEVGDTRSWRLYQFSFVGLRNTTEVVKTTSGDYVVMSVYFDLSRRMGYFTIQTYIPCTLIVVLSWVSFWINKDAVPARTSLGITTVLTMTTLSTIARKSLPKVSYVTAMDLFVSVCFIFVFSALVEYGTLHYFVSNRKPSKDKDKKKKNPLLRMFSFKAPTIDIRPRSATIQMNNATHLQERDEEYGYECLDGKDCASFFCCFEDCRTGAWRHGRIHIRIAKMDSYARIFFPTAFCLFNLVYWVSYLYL
# [6] = biological target: NMDA receptor subunit NR1 (mouse (endogenous in hippocampus of PTZ-kindled C57BL/6 mice)) (UniProt P35438); test: as above
# [7] = biological target: NMDA receptor subunit NR2A (mouse (endogenous in hippocampus of PTZ-kindled C57BL/6 mice)) (UniProt P35436); test: as above
# [8] = biological target: NMDA receptor subunit NR2B (mouse (endogenous in hippocampus of PTZ-kindled C57BL/6 mice)) (UniProt Q01097); test: as above
binding [1],binding [2],binding [3],binding [4],binding [5],binding [6],binding [7],binding [8],Substance
binds,,,,,,,,NMDA receptor subunit NR2A (from UniProt P35436 23-1464)
binds,,,,,,,,NMDA receptor subunit NR2B (from UniProt Q01097 27-1482)
,no binding,no binding,no binding,no binding,binds,binds,binds,Serine/threonine kinase 24 (STK24) (from UniProt Q99KH8 1-431)
